Data taken from PubChem BioAssay AID504749, deposited by NCATS (2011).

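A panel of P. falciparum strains inside erythrocytes is exposed to compounds for three days, then a DNA-binding dye reports the amount of parasite DNA. Each compound was titrated across a series from about 0.000037 to 29 µM. The number is the fitted AC50, the concentration giving a half-maximal change in signal; a lower value means higher potency, whether the curve shows a decrease or an increase. Calls follow the curve class and fit quality: every row here is inconclusive, covering signal-raising curves and weak, poorly fitted, partial or highest-dose-only inhibition curves.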

Values are in µM. All entries here are filed as inconclusive. These entries are mostly ones the record files as inconclusive; other results of the assay are not listed here. Potencies fitted to partial, single-point or poorly fitting curves are rough.

structure	setting	potency (µM)	remark
CO[C@H]1[C@H](O[C@H]2O[C@@H](C)[C@@H](O[C@@H]3C[C@](C)(O)[C@H](O)[C@H](C)O3)[C@@H](N(C)C)[C@@H]2O)[C@@H](CC=O)C[C@@H](C)[C@@H](O[C@H]2CC[C@H](N(C)C)[C@H](C)O2)/C=C\C=C/C[C@@H](C)OC(=O)C[C@H]1O	CP211	8.087	inhibitor, single point
CO[C@H]1[C@H](O[C@H]2O[C@@H](C)[C@@H](O[C@@H]3C[C@](C)(O)[C@H](O)[C@H](C)O3)[C@@H](N(C)C)[C@@H]2O)[C@@H](CC=O)C[C@@H](C)[C@@H](O[C@H]2CC[C@H](N(C)C)[C@H](C)O2)/C=C\C=C/C[C@@H](C)OC(=O)C[C@H]1O	CP252	3.162	inhibitor, single point
CO[C@H]1[C@H](O[C@H]2O[C@@H](C)[C@@H](O[C@@H]3C[C@](C)(O)[C@H](O)[C@H](C)O3)[C@@H](N(C)C)[C@@H]2O)[C@@H](CC=O)C[C@@H](C)[C@@H](O[C@H]2CC[C@H](N(C)C)[C@H](C)O2)/C=C\C=C/C[C@@H](C)OC(=O)C[C@H]1O	TAB113	10	inhibitor, single point
CO[C@H]1[C@H](O[C@H]2O[C@@H](C)[C@@H](O[C@@H]3C[C@](C)(O)[C@H](O)[C@H](C)O3)[C@@H](N(C)C)[C@@H]2O)[C@@H](CC=O)C[C@@H](C)[C@@H](O[C@H]2CC[C@H](N(C)C)[C@H](C)O2)/C=C\C=C/C[C@@H](C)OC(=O)C[C@H]1O	CP268	5.103	inhibitor, single point
CO[C@H]1[C@H](O[C@H]2O[C@@H](C)[C@@H](O[C@@H]3C[C@](C)(O)[C@H](O)[C@H](C)O3)[C@@H](N(C)C)[C@@H]2O)[C@@H](CC=O)C[C@@H](C)[C@@H](O[C@H]2CC[C@H](N(C)C)[C@H](C)O2)/C=C\C=C/C[C@@H](C)OC(=O)C[C@H]1O	CP325	3.22	inhibitor, partial curve
CO[C@H]1[C@H](O[C@H]2O[C@@H](C)[C@@H](O[C@@H]3C[C@](C)(O)[C@H](O)[C@H](C)O3)[C@@H](N(C)C)[C@@H]2O)[C@@H](CC=O)C[C@@H](C)[C@@H](O[C@H]2CC[C@H](N(C)C)[C@H](C)O2)/C=C\C=C/C[C@@H](C)OC(=O)C[C@H]1O	P94_40	1.585	inhibitor, partial curve
CO[C@H]1[C@H](O[C@H]2O[C@@H](C)[C@@H](O[C@@H]3C[C@](C)(O)[C@H](O)[C@H](C)O3)[C@@H](N(C)C)[C@@H]2O)[C@@H](CC=O)C[C@@H](C)[C@@H](O[C@H]2CC[C@H](N(C)C)[C@H](C)O2)/C=C\C=C/C[C@@H](C)OC(=O)C[C@H]1O	AA1029	3.162	inhibitor, single point
CO[C@H]1[C@H](O[C@H]2O[C@@H](C)[C@@H](O[C@@H]3C[C@](C)(O)[C@H](O)[C@H](C)O3)[C@@H](N(C)C)[C@@H]2O)[C@@H](CC=O)C[C@@H](C)[C@@H](O[C@H]2CC[C@H](N(C)C)[C@H](C)O2)/C=C\C=C/C[C@@H](C)OC(=O)C[C@H]1O	CP203	8.087	inhibitor, partial curve, poor fit
CO[C@H]1[C@H](O[C@H]2O[C@@H](C)[C@@H](O[C@@H]3C[C@](C)(O)[C@H](O)[C@H](C)O3)[C@@H](N(C)C)[C@@H]2O)[C@@H](CC=O)C[C@@H](C)[C@@H](O[C@H]2CC[C@H](N(C)C)[C@H](C)O2)/C=C\C=C/C[C@@H](C)OC(=O)C[C@H]1O	CP237	10	inhibitor, single point
CO[C@H]1[C@H](O[C@H]2O[C@@H](C)[C@@H](O[C@@H]3C[C@](C)(O)[C@H](O)[C@H](C)O3)[C@@H](N(C)C)[C@@H]2O)[C@@H](CC=O)C[C@@H](C)[C@@H](O[C@H]2CC[C@H](N(C)C)[C@H](C)O2)/C=C\C=C/C[C@@H](C)OC(=O)C[C@H]1O	ICS	3.981	inhibitor, single point
CO[C@H]1[C@H](O[C@H]2O[C@@H](C)[C@@H](O[C@@H]3C[C@](C)(O)[C@H](O)[C@H](C)O3)[C@@H](N(C)C)[C@@H]2O)[C@@H](CC=O)C[C@@H](C)[C@@H](O[C@H]2CC[C@H](N(C)C)[C@H](C)O2)/C=C\C=C/C[C@@H](C)OC(=O)C[C@H]1O	CP256	3.162	inhibitor, single point
CO[C@H]1[C@H](O[C@H]2O[C@@H](C)[C@@H](O[C@@H]3C[C@](C)(O)[C@H](O)[C@H](C)O3)[C@@H](N(C)C)[C@@H]2O)[C@@H](CC=O)C[C@@H](C)[C@@H](O[C@H]2CC[C@H](N(C)C)[C@H](C)O2)/C=C\C=C/C[C@@H](C)OC(=O)C[C@H]1O	ATS95	3.548	inhibitor, single point
CC(C)=O	CP256	12.59	inhibitor, single point
CC(C)=O	CP268	0.0005	inhibitor
CC(C)=O	CP265	0.0006	inhibitor
CC(C)=O	parasite line B	17.78	inhibitor, single point
CC(C)=O	ATS95	17.78	inhibitor, single point
CC(C)=O	P94_40	17.78	inhibitor, single point
C[N+]1(CC2COC(c3ccccc3)(C3CCCCC3)O2)CCCCC1 (centres unmarked)	CP247	1.413	inhibitor, partial curve, poor fit
C[N+]1(CC2COC(c3ccccc3)(C3CCCCC3)O2)CCCCC1 (centres unmarked)	CP329	4.776	inhibitor, partial curve, poor fit
C[N+]1(CC2COC(c3ccccc3)(C3CCCCC3)O2)CCCCC1 (centres unmarked)	CP250	10	inhibitor, single point
C[N+]1(CC2COC(c3ccccc3)(C3CCCCC3)O2)CCCCC1 (centres unmarked)	CP335	4.776	inhibitor, partial curve, poor fit
O=C(O)[C@@H]1[C@@H]2C[C@H]3c4[nH]c5ccccc5c4CCN3C[C@@H]2CC[C@@H]1O	CP266	0.1811	inhibitor, full curve, poor fit

For reference, 2 entries once more:

| structure | setting | potency (µM) | remark |
|---|---|---|---|
| `CO[C@H]1[C@H](O[C@H]2O[C@@H](C)[C@@H](O[C@@H]3C[C@](C)(O)[C@H](O)[C@H](C)O3)[C@@H](N(C)C)[C@@H]2O)[C@@H](CC=O)C[C@@H](C)[C@@H](O[C@H]2CC[C@H](N(C)C)[C@H](C)O2)/C=C\C=C/C[C@@H](C)OC(=O)C[C@H]1O` | P94_40 | 1.585 | inhibitor, partial curve |
| `C[N+]1(CC2COC(c3ccccc3)(C3CCCCC3)O2)CCCCC1` (centres unmarked) | CP247 | 1.413 | inhibitor, partial curve, poor fit |